Patent US20240190915A1, “PEPTIDES FOR THE TREATMENT OF CANCER” (KLINIKUM RECHTS DER ISAR DER TECHNISCHEN UNIVERSITÄT MÜNCHEN, priority 2020, published 2024)
“Also recorded” adds a separate entry of the source. Not every detail of the peptide structures is certain; ends, links or a residue may be inferred. Where no end group is shown, it is not given here.

What was measured:
p53 [1] = test: Western blot of p53 activation (p-p53^ser15, p53) in human PDAC cell lines; type: cell-based
[2] = target: T1, binding of POLR2A to AGR2 (Homo sapiens, UniProt O95994); test: Co-immunoprecipitation of AGR2 and POLR2A in Capan2 PDAC cells treated with hexapeptides; type: cell-based; settings: liposome-encapsulated hexapeptide
T1 construct: endogenous in cells; host or cells: Capan2 (human PDAC cell line)
T1 sequence (O95994 21-175): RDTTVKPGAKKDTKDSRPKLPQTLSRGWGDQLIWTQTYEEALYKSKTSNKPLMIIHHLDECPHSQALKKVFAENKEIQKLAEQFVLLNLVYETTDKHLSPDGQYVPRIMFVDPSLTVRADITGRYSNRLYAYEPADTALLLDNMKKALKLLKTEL
From the text: (§1) The present inventors hypothesize that a small peptide mimicking the consensus binding site of Tx[IL ][YF][YF] could competitively disrupt the binding between AGR2 and POLR2A by blocking the docking site on AGR2. To test this, the present inventors synthesized a hexapeptide (NTAIYY (SEQ ID NO:2)) according to the endogenous protein sequence of POLR2A. […] Besides, the present inventors included a previously described hexapeptide (PTTIYY (SEQ ID NO:4)), which is known to precipitate the endogenous AGR2 in vitro, as a positive control. To enable its clinical application, the present inventors developed a liposome-encapsulated form of these hexapeptides (FIG. 5A). […] To test the impact of two bioactive hexapeptides on early pancreatic carcinogenesis in vivo, the present inventors treated Kras^G12D mice with three doses of intravenous hexapeptides (NTAIYY (SEQ ID NO:2) and PTTIYY (SEQ ID NO:4), 8 μg/kg) or controls (empty Liposome and NTAIYA (SEQ ID NO:5)) after caerulein injection.

[3] = system: patient-derived PDAC organoids B34 and B29 (wild-type TP53); test: MTT viability/growth of patient-derived PDAC organoids with wild-type TP53; type: cell-based, human
From the text: Again, this effect is only limited to those cell lines with wild-type TP53 (Capan2 and HPAC cells). […] Next, the present inventors tested the cytotoxic effect of bioactive hexapeptides and α-Amanitin on patient-derived PDAC organoids carrying either wild-type (B34 and B29) or mutated (B61 and B77) TP53 (FIG. 7D). These organoids were positive for AGR2 and POLR2A expression (FIG. 7D). Compellingly, the addition of bioactive hexapeptides (PTTIYY (SEQ ID NO:4) and NTAIYY (SEQ ID NO:2)) to α-Amanitin is lethal to TP53 wild-type organoids.

POLR2A (p-POLR2A^ser2/5) [4] = test: Western blot of active POLR2A in human colon, lung and breast cancer cell lines; type: cell-based; settings: all tested colon
POLR2A (p-POLR2A^ser2/5) [5] = test: Western blot of active POLR2A (p-POLR2A^ser2/5) in human PDAC cell lines; type: cell-based; settings: Capan2, HPAC and Panc1 cells, irrespective of TP53 status
[6] = system: xenograft tumours generated by Capan2 and HPAC cells; test: Orthotopic xenograft tumour models of Capan2 and HPAC cells, Ama-HEA125 and hexapeptides; type: in vivo, human; settings: orthotopic Capan2 and HPAC xenografts; Ama-HEA125 30 μg/kg or hexapeptide 8 μg/kg alone; compared to control-treated animals
Protocol: Due to the hepatic toxicity, the clinical application of α-Amanitin is limited. To overcome this, the present inventors used α-Amanitin conjugated to a monoclonal partially humanized anti-EpCAM antibody (Ama-HEA125). EpCAM is a cancer antigen which is overexpressed by PDAC. Next, the present inventors investigated the anti-tumour activity of Ama-HEA125 (30 μg/kg) and bioactive hexapeptides (8 μg/kg) in orthotopic xenograft tumour models established by Capan2, HAPC and Panc1 cells.

Capan2 and HPAC cells = test: GI50 of chemotherapeutic agents in the presence of hexapeptides, PDAC cell lines with wild-type TP53; type: cell-based, human; settings: in presence of hexapeptide
From the text: The present inventors went on to test if bioactive hexapeptides affect the chemosensitivity of PDAC cell lines to chemotherapeutic agents that are routinely used, including Gemcitabine, 5-FU (5-Fluoruracil), Irinotecan and Oxaliplatin. […] The present inventors tested the effect of NTAIYY (SEQ ID NO:2) on human PDAC cell lines carrying wild-type (Capan2 and HPAC) and mutated (Panc1) TP53.

Kras^G12D pancreata = test: Early pancreatic carcinogenesis in caerulein-treated Kras^G12D mice, histology/IHC quantification; type: in vivo; settings: three intravenous doses, 8 μg/kg, after caerulein, compared to controls
From the text: as §1

p53 [7] = test: Western blot of p53 pathway in human colon, lung and breast cancer cell lines; type: cell-based; settings: cancer lines with wild-type TP53

NTAIYY [NTAIYY]
p53 activation (p53 [1]; PDAC cell lines with mutated TP53 (Panc1)): not in PDAC cell lines with mutated TP53
p53 activation (p53 [1]; PDAC cell lines with wild-type TP53 (Capan2 and HPAC)): induced p53 activation
binding of POLR2A to AGR2 (co-IP) [2]: dose-dependently block the binding of AGR2 to POLR2A; also recorded: inhibited the binding of POLR2A to AGR2 in a dose-dependent manner
effect on TP53 wild-type organoids of hexapeptide added to α-Amanitin [3]: lethal
levels of active POLR2A (POLR2A (p-POLR2A^ser2/5) [4]): reduced the levels of active POLR2A in a dose-dependent manner
active levels of POLR2A (POLR2A^ser2/5) (POLR2A (p-POLR2A^ser2/5) [5]): consistently reduced the active levels of POLR2A
tumour volume, single-agent treatment [6]: only partially inhibited the tumour volume
therapeutic effect (GI50) of Gemcitabine (Capan2 and HPAC cells): seemed not to affect the therapeutic effect
amount of intact acinar cells (stained by a-Amylase) (Kras^G12D pancreata): increased amount of intact acinar cells
number of PanIN lesions (stained by Muc5ac) (Kras^G12D pancreata): decreased number of PanIN lesions
p53 pathway activation (p53 [7]): activated p53 pathway
